According to article PMC10182654, “The pattern of histone H3 epigenetic posttranslational modifications is regulated by the VRK1 chromatin kinase” (Epigenetics & Chromatin, 2023):
These are yes or no findings as the source states them, for the method shown. In cells and extracts the contact can be indirect. Some results given as binding are weak or reduced against the parent protein; the word gives no strength. Tags and fused reporters may be left off the sequences shown.

The chains behind the UniProt entries cited, without tags or fusion partners.
UniProt Q13547: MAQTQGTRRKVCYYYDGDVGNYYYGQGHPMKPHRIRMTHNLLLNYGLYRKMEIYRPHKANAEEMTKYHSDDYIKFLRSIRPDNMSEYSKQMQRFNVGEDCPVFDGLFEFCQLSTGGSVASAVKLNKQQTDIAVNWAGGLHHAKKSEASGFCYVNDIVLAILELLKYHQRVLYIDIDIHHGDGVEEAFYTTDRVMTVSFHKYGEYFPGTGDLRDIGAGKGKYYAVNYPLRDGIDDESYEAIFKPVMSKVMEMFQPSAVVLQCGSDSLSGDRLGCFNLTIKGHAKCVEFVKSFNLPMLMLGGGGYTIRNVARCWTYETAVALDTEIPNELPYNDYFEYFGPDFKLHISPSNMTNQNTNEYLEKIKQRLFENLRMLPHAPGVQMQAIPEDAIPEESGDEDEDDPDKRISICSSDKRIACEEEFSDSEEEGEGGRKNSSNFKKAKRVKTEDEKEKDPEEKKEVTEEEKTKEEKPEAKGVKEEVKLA
UniProt Q92831: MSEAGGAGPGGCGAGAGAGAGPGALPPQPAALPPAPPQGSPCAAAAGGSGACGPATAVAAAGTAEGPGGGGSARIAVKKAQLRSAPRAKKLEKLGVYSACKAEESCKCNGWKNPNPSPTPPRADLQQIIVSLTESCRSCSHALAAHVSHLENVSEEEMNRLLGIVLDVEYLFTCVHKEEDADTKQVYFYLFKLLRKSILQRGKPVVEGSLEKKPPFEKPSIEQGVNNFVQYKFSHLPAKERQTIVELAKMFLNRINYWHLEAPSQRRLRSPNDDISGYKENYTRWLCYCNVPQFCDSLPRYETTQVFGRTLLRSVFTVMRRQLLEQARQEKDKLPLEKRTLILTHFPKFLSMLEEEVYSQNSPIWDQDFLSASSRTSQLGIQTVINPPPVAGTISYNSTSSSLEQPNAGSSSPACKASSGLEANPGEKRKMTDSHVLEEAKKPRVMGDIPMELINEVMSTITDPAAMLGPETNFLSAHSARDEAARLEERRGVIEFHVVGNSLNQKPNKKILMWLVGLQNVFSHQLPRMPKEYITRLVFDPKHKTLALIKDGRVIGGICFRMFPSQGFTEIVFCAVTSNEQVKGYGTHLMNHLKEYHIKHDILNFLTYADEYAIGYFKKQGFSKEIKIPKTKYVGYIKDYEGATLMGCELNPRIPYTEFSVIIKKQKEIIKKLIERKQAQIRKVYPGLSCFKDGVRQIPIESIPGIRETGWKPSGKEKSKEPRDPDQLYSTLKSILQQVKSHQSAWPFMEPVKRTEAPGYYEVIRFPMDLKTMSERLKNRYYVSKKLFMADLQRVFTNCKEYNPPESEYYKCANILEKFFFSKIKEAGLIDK

T1: KDM3A (JMJD1A)-V5 (human) (UniProt Q9Y4C1)
T1 sequence: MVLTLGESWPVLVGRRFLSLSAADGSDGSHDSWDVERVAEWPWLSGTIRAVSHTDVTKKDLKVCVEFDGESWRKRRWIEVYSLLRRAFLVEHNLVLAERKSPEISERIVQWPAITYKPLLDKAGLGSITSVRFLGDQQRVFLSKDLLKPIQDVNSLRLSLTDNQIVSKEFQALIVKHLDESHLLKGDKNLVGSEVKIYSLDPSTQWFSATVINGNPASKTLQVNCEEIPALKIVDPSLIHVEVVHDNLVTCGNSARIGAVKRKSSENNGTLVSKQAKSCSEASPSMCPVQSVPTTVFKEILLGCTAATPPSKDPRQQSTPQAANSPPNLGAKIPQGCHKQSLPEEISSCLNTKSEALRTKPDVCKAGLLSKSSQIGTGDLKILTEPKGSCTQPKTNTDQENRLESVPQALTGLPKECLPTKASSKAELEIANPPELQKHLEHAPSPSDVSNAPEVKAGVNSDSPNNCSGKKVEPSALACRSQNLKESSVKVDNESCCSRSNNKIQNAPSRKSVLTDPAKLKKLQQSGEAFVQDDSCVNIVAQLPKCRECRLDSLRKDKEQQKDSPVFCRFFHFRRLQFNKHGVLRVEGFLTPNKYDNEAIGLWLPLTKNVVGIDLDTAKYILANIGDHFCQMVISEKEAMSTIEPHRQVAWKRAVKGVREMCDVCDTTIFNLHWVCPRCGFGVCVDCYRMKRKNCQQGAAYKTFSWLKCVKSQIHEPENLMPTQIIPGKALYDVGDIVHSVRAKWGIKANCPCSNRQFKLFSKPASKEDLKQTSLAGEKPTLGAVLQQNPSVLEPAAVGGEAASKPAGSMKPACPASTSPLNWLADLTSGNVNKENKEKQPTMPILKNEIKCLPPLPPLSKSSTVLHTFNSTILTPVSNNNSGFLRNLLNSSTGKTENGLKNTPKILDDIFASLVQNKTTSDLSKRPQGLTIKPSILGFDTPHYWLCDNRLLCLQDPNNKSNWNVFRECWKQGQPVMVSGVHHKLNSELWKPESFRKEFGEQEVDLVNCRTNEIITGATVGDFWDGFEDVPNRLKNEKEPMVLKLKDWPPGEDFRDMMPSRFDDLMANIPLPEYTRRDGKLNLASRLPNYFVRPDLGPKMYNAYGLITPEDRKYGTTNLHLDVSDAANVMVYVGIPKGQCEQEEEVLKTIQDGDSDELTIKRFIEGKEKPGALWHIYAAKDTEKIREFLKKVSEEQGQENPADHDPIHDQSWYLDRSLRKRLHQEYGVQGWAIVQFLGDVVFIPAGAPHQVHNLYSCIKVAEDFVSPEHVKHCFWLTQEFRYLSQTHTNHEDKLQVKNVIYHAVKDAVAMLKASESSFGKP

T2: KDM4A (JMJD2A)-HA (human) (UniProt O75164)
T2 sequence: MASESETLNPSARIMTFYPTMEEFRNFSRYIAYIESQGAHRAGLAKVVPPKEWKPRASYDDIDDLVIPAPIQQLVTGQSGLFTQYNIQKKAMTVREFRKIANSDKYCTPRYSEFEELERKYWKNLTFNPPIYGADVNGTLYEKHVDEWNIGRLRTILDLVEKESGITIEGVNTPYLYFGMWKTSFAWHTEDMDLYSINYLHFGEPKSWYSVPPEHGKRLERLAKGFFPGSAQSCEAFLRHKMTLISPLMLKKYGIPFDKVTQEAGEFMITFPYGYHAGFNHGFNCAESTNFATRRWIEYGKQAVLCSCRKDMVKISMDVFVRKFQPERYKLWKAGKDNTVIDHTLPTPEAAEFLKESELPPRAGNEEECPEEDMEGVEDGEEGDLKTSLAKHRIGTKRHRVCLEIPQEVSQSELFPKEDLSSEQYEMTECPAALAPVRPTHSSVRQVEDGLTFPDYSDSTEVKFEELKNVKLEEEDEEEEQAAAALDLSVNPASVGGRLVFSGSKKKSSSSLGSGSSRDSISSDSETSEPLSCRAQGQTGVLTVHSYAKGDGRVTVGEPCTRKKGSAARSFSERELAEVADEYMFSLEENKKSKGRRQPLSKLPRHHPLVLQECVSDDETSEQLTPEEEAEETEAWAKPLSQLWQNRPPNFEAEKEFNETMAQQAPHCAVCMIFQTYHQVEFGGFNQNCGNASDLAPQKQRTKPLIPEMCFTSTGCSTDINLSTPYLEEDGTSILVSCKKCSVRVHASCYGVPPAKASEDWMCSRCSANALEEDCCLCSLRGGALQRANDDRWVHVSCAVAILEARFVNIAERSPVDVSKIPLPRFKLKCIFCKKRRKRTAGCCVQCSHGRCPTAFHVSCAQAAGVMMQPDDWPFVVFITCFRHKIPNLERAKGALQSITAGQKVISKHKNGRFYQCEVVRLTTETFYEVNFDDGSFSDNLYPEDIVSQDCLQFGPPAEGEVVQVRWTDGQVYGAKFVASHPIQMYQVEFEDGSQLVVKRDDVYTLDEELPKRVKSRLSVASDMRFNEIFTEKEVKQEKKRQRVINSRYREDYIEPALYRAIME


Assays:
Assay in all cases: co-IP; 0.5–1 mg whole-cell extracts of transfected HEK293T cells; specific antibody 6–8 h at 4, then Protein G–Agarose overnight at 4 °C; immunoblot; increasing amounts of transfected plasmid in some panels
[1] = biological target: T1, KDM3A (JMJD1A)-V5 (human)
HDAC1-Flag (human) = HDAC1-Flag (human) (UniProt Q13547)
[2] = biological target: T2, KDM4A (JMJD2A)-HA (human)
PCAF-Flag (human) = PCAF-Flag (human) (UniProt Q92831)

Row | binding [1] | binding (HDAC1-Flag (human)) | binding [2] | binding (PCAF-Flag (human)) | Binder
1 | binds | binds | binds | binds | endogenous VRK1 (enzyme, UniProt Q99986 1-396) MPRVKAAQAGRQSSAKRHLAEQFAVGEIITDMAKKEWKVGLPIGQGGFGCIYLADMNSSESVGSDAPCVVKVEPSDNGPLFTELKFYQRAAKPEQIQKWIRTRKLKYLGVPKYWGSGLHDKNGKSYRFMIMDRFGSDLQKIYEANAKRFSRKTVLQLSLRILDILEYIHEHEYVHGDIKASNLLLNYKNPDQVYLVDYGLAYRYCPEGVHKEYKEDPKRCHDGTIEFTSIDAHNGVAPSRRGDLEILGYCMIQWLTGHLPWEDNLKDPKYVRDSKIRYRENIASLMDKCFPEKNKPGEIAKYMETVKLLDYTEKPLYENLRDILLQGLKAIGSKDDGKLDLSVVENGGLKAKTITKKRKKEIEESKEPGVEDTEWSNTQTEEAIQTRSRTRKRVQK
2 | binds | binds | binds | binds | VRK1-HA (enzyme, UniProt Q99986 1-396) MPRVKAAQAGRQSSAKRHLAEQFAVGEIITDMAKKEWKVGLPIGQGGFGCIYLADMNSSESVGSDAPCVVKVEPSDNGPLFTELKFYQRAAKPEQIQKWIRTRKLKYLGVPKYWGSGLHDKNGKSYRFMIMDRFGSDLQKIYEANAKRFSRKTVLQLSLRILDILEYIHEHEYVHGDIKASNLLLNYKNPDQVYLVDYGLAYRYCPEGVHKEYKEDPKRCHDGTIEFTSIDAHNGVAPSRRGDLEILGYCMIQWLTGHLPWEDNLKDPKYVRDSKIRYRENIASLMDKCFPEKNKPGEIAKYMETVKLLDYTEKPLYENLRDILLQGLKAIGSKDDGKLDLSVVENGGLKAKTITKKRKKEIEESKEPGVEDTEWSNTQTEEAIQTRSRTRKRVQK
